Assay results as given in article PMC12518634, “The noncanonical function of liver-type phosphofructokinase potentiates the efficacy of HDAC inhibitors in cancer” (Signal Transduction and Targeted Therapy, 2025).

Experiments:
[1] = test system: 1405R3; assay: High-throughput drug screen, CellTiter-Glo viability, 72 h; format: cell-based, human; set-up: scale not given here
Procedure: (§1) The cells were seeded and incubated with a gradient of concentrations of drugs for 72 h, after which the cell viability was assessed (Supplementary Fig. 1a). The drug library primarily comprises epigenetic drugs, including HDAC inhibitors, DNA methyltransferase inhibitors, and histone demethylase inhibitors, as well as conventional chemotherapies and kinase inhibitors (Supplementary Fig. 1b and Supplementary Table 1). […] To identify novel therapeutics against CCA, we conducted a high-throughput screen employing PerkinElmer’s integrated robotic Explorer G3 workstations. […] Following dilution to five specified concentrations, drugs were dispensed into 96-well plates in the sequence detailed in Supplementary Fig. 1a. […] We then quantified cell viability via the CellTiter-Glo luminescent assay according to the manufacturer’s protocol. Signal detection was carried out on a Synergy2 plate reader operated by Gen5 software (BioTek). For data processing, the raw luminescence data were processed through the Breeze pipeline for curve fitting, yielding quality control metrics (e.g., Z-factors) and drug response parameters (AUC and DSS), as adapted from previous work.[54] Drug responses were evaluated on the basis of the drug sensitivity score (DSS), and a cutoff of ≥10 was used to define efficacy. […]

[2] = test system: 783C-6; assay: as above; format: cell-based, human; set-up: scale not given here
Procedure: as §1

CCNC(=O)C[C@@H]1N=C(c2ccc(Cl)cc2)c2cc(OC)ccc2-n2c(C)nnc21 [I-BET-762]
AUC [1]: 51.5 | AUC [2]: 0.6
